Laboratory results from the supplement of paper PMC10849652.
The list shows a part of the results.

By UniProt entry, the sequences of proteins in these tests, tags left out. Where a name states a change or a piece, a line headed by the entry shows the natural chain unless it says otherwise.
UniProt Q9BQT9: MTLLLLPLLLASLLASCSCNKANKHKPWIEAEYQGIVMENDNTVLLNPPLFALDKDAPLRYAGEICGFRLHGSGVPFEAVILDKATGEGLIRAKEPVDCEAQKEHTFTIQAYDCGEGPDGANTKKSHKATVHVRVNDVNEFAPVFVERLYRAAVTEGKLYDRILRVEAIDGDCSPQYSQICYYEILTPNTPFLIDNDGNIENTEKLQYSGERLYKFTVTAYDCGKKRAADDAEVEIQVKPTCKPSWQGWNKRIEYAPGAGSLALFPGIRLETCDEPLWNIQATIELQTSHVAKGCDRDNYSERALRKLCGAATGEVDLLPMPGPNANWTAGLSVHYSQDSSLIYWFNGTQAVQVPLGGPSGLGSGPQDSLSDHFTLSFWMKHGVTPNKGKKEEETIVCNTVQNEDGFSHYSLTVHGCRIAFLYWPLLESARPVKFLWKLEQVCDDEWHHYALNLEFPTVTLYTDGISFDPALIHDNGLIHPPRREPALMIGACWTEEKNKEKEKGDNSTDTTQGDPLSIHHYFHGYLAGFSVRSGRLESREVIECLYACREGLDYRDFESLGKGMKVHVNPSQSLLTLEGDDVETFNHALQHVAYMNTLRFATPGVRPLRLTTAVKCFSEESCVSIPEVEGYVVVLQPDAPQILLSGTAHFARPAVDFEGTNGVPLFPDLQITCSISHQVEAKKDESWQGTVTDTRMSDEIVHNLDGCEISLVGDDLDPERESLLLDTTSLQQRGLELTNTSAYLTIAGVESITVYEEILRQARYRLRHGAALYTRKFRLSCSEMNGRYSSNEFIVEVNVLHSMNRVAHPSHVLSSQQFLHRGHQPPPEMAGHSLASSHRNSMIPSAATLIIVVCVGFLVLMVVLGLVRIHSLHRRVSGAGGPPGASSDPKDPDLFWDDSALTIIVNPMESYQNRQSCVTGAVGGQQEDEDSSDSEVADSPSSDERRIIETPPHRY
UniProt Q2KHT3: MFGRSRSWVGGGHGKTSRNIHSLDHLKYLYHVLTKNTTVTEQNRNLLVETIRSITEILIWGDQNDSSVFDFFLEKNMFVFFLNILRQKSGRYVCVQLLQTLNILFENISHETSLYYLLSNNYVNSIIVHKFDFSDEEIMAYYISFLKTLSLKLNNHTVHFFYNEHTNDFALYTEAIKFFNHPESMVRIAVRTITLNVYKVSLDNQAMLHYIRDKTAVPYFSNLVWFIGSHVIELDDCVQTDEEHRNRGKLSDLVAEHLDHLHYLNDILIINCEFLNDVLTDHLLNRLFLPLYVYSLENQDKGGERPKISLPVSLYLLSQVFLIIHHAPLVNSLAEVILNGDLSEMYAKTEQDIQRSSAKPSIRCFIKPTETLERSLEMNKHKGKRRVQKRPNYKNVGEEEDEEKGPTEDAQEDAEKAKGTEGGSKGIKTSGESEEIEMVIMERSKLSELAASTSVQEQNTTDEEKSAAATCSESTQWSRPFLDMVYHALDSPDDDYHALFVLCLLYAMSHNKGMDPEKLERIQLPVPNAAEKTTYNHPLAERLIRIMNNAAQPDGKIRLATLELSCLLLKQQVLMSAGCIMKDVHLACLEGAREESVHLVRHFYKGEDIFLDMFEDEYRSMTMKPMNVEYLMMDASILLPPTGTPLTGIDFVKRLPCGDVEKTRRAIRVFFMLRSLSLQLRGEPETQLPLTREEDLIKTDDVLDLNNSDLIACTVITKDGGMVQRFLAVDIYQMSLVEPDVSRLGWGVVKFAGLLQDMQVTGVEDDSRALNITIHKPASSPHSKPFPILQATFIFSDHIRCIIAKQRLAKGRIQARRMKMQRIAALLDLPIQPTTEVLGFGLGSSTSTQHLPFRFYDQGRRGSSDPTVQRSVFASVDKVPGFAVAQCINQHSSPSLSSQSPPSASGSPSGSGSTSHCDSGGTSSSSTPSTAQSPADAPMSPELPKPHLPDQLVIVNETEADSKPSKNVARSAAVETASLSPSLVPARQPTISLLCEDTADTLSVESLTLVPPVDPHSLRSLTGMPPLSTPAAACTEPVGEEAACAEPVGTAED
UniProt Q9Y240: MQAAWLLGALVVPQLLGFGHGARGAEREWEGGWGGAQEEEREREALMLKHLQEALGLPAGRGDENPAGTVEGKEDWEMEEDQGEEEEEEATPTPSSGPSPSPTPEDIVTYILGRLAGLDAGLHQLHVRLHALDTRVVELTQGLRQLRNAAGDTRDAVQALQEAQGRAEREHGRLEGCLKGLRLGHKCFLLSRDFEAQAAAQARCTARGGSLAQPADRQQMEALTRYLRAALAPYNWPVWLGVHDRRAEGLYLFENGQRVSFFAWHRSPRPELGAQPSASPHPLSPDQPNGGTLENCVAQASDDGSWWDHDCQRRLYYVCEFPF
UniProt Q5VXU3: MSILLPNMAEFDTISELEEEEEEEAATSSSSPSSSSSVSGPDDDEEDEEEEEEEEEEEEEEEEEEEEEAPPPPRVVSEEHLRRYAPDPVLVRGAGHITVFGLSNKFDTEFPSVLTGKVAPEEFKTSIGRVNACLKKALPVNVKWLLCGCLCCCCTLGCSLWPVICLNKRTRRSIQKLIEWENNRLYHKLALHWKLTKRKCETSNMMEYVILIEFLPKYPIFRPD
UniProt Q15846: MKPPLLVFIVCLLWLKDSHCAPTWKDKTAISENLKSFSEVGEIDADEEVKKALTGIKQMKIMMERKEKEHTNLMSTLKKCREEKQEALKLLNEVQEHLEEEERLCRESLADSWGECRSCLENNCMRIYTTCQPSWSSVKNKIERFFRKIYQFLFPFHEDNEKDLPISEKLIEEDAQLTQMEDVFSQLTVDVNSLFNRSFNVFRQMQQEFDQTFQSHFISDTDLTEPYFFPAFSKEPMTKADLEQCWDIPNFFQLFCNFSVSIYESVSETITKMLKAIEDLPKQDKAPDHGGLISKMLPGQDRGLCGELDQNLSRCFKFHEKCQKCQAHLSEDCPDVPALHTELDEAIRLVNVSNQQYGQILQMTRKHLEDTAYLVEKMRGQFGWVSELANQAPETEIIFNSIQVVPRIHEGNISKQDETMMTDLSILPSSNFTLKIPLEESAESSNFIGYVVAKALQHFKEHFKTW

Assays:
Experiment in all cases: log2 fold change, soluble protein after heating vs DMSO (PISA); higher = thermal stabilisation; K562 lysate, 10 uM; active = over 0.2 and 3.5 SD of the protein, either way, in both replicates (recomputed)
lapatinib = compound: CS(=O)(=O)CCNCc1ccc(-c2ccc3ncnc(Nc4ccc(OCc5cccc(F)c5)c(Cl)c4)c3c2)o1 [lapatinib]
Outline: (§1)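 Pellets of K562 cells were dounce-homogenised in PBS pH 7.4 with 1 mM MgCl2, and the crude extract was held at 1 mg/mL protein for a 30 min treatment with 10 μM compound. Aliquots were heated for 3 min over 48°C-58°C and pooled before NP-40 was added to 0.5% at 4°C. The supernatant from 21,000xg for 90 min was quantified by TMTpro 16plex LC-MS/MS with channel sums equalised. Values are reported from duplicates as log-two fold change in thermal stability relative to solvent controls.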

crizotinib = compound: C[C@@H](Oc1cc(-c2cnn(C3CCNCC3)c2)cnc1N)c1c(Cl)ccc(F)c1Cl [crizotinib]
Outline: as §1

duvelisib = compound: C[C@H](Nc1ncnc2nc[nH]c12)c1cc2cccc(Cl)c2c(=O)n1-c1ccccc1 [duvelisib]
Outline: as §1

doramapimod = compound: Cc1ccc(-n2nc(C(C)(C)C)cc2NC(=O)Nc2ccc(OCCN3CCOCC3)c3ccccc23)cc1 [doramapimod]
Outline: as §1

bafetinib = compound: Cc1ccc(NC(=O)c2ccc(CN3CC[C@H](N(C)C)C3)c(C(F)(F)F)c2)cc1Nc1nccc(-c2cncnc2)n1 [bafetinib]
Outline: as §1

tozasertib = compound: Cc1cc(Nc2cc(N3CCN(C)CC3)nc(Sc3ccc(NC(=O)C4CC4)cc3)n2)n[nH]1 [tozasertib]
Outline: as §1

[1] = compound: C[C@H](C1=CC=C(C=C1)C(=O)NC2=C3C=CNC3=NC=C2)N
Outline: as §1

gandotinib = compound: Cc1cc(Nc2cc(CN3CCOCC3)c3nc(C)c(Cc4ccc(Cl)cc4F)n3n2)n[nH]1 [gandotinib]
Outline: as §1

[2] = compound: Cc1cccc(CC(=O)N2CCc3c2ccc(-c2cn(C)c4ncnc(N)c24)c3F)n1
Outline: as §1

Measured: log2 fold change

CLSTN3 isoform 2 (UniProt Q9BQT9)
inactive: lapatinib -0.009 | crizotinib 0.184 | duvelisib 0.023 | doramapimod 0.065

CLEC16A isoform 2 (UniProt Q2KHT3)
inactive: lapatinib -0.035 | crizotinib 0.039 | duvelisib 0.05 | doramapimod 0.034 | bafetinib 0.095

CLEC11A (UniProt Q9Y240)
inactive: lapatinib 0 | crizotinib 0.14 | tozasertib 0.096 | doramapimod 0.032

CHIC1 (UniProt Q5VXU3)
inactive: [1] 0.192 | gandotinib -0.107 | [2] -0.123

CLUL1 (UniProt Q15846)
inactive: lapatinib -0.152 | [1] -0.188 | gandotinib 0.04 | bafetinib -0.304 | [2] 0.143
